Data from US20250027090.

Tests used:
[1] = system: thrombin (native human beta-thrombin) (Homo sapiens); assay: ITC; details: binding not detected, chirality control, purified native protein, protein details: plasma origin, Haematologic Technologies, single-stranded DNA, mirror-image nucleic acid
[2] = system: thrombin (native human beta-thrombin) (Homo sapiens); assay: activity assay; details: human plasma coagulation assay, purified native protein, protein details: plasma origin, Haematologic Technologies, single-stranded DNA, mirror-image nucleic acid; for functional effect of the aptamer (fold prothrombin time): L-DNA (all nucleotides), 2.5 uM aptamer
[3] = system: thrombin (native human beta-thrombin) (Homo sapiens); assay: inhibition of the protein; details: purified native protein, protein details: plasma origin, Haematologic Technologies, single-stranded DNA, mirror-image nucleic acid
streptavidin [4] = biological target: streptavidin (UniProt P22629); assay: binding assay; details: L-DNA (all nucleotides), purified recombinant protein, protein details: New England Biolabs, mirror-image nucleic acid
[5] = system: thrombin (native human beta-thrombin) (Homo sapiens); assay: binding assay; details: L-DNA (all nucleotides), purified native protein, protein details: plasma origin, Haematologic Technologies, mirror-image nucleic acid
streptavidin [6] = biological target: streptavidin (UniProt P22629); assay: ITC; details: L-DNA (all nucleotides), binding not detected, purified recombinant protein, protein details: New England Biolabs, single-stranded DNA, mirror-image nucleic acid
[7] = system: thrombin (native bovine alpha-thrombin) (Bos taurus); assay: binding assay; details: L-DNA (all nucleotides); fluorescence sensor, no response to 1 uM; purified native protein; protein details: plasma origin, Haematologic Technologies; folded or branched DNA; mirror-image nucleic acid; variant of L-9-1t …
[8] = L-DNA (all nucleotides), 10 nM thrombin, 100 uM benzoyl-Phe-Val-Arg-AMC, variant of L-9-2 aptamer

Q: Does “ACGGAACGCGTTTCAAGACTACCGTGTTTGTTCCGT [D-L-9-1t (natural D-DNA version of L-9-1t)]” bind ([1]; variant of L-9-1t aptamer)?
A: no binding

Q: And the “functional effect of the aptamer” value ([2]; served as control for prolonged prothrombin time, variant of L-9-1t aptamer, dose not given here)?
A: not active

Q: How did the functional effect of the aptamer (fold prothrombin time) ([2]; variant of L-13 aptamer) turn out when “GATGAACTTGTTGAAACCCAACGGGAGCCTCGTTCATT [L-13t aptamer]” was run?
A: 2

Q: What about the IC50 ([3]; L-DNA (all nucleotides), 10 nM thrombin, 100 uM benzoyl-Phe-Val-Arg-AMC, variant of L-13 aptamer) of the same sequence?
A: 46 nM

Q: Which results are given for “GATGAACTTGTTGAAACCCAACGGGAGAATCGTTCATT [D-L-9-2t (natural D-DNA version of L-9-2t)]”?
A: binding result ([1]; variant of L-9-2t aptamer): no binding; IC50 ([3]; no inhibition up to 8 uM, chirality control, variant of L-9-2t aptamer): > 8000 nM

Q: Does “GATGAACTTGTTGAAACCCAACGGGAGCCTCGTTCATT [Cy5-L-13t aptamer]” bind (streptavidin [4]; aptamer Western blot, 6-180 ng streptavidin, no clear band, label: 5'-Cy5, single-stranded DNA, variant of L-13t aptamer)?
A: no binding

Q: Does “GATGAACTTGTTGAAACCCAACGGGAGCCTCGTTCATT [Cy5-L-13t aptamer]” bind ([5]; aptamer Western blot on nitrocellulose, 500 nM aptamer, detection limit <6 ng, label: 5'-Cy5, single-stranded DNA, variant of L-13t aptamer)?
A: binds

Q: “CGGATCCAGTTACGGATGAACTTGTTGAAACCCAACGGGAGAATCGTTCATTCAGTAAGCTTCGG [L-9-2 aptamer]” was tested. Which IC50 ([3]; L-DNA (all nucleotides), 10 nM thrombin, 100 uM benzoyl-Phe-Val-Arg-AMC) did it give?
A: 317 nM

Q: Does “GATGAACTTGTTGAAACCCAACGGGAGAATCGTTCATT [L-9-2t aptamer]” bind (streptavidin [6]; variant of L-9-2 aptamer)?
A: no binding

Q: And the IC50 [3, 8]?
A: 479 nM

Q: What does the source list for “ACGGAACGCGTTTCAAGACTACCGTGTTTGTTCCGT [L-9-1t aptamer]”?
A: binding result (streptavidin [6]; variant of L-9-1 aptamer): no binding; functional effect of the aptamer (fold prothrombin time) ([2]; variant of L-9-1 aptamer): 4; IC50 ([3]; L-DNA (all nucleotides), no inhibition of enzymatic activity up to 8 uM despite binding, variant of L-9-1 aptamer): > 8000 nM

Q: With “CGGATCCAGTTACGGATGAACTTGTTGAAACCCAACGGGAGCCTCGTTCATTCAGTAAGCTTCGGTGG [L-13 aptamer]” as the sequence, how does the IC50 [3, 8] read?
A: 27 nM

Q: With “CGGATCCAGTTACGGAACGCGTTTCAAGACTACCGTGTTTGTTCCGTTCATTCAGTAAGCTTCGG [L-9-1 aptamer]” as the sequence, how does the IC50 ([3]; L-DNA (all nucleotides), no inhibition of enzymatic activity up to 8 uM despite binding) read?
A: > 8000 nM

Q: Does “CAGCTCGGATCCAGTTACGGAACGCGTTTCAAGACTACCGTGTTTGTTCCGT / ACTGGATCCGAGCTG / ACGCGTTCCGT [L-DNA aptamer sensor (L-9-1t based)]” bind (streptavidin [4]; fluorescence sensor, no response to 1 uM, folded or branched DNA, variant of L-9-1t aptamer)?
A: no binding

Q: Does “CAGCTCGGATCCAGTTACGGAACGCGTTTCAAGACTACCGTGTTTGTTCCGT / ACTGGATCCGAGCTG / ACGCGTTCCGT [L-DNA aptamer sensor (L-9-1t based)]” bind [7]?
A: no binding

Q: Does “CAGCTCGGATCCAGTTACGGAACGCGTTTCAAGACTACCGTGTTTGTTCCGT / ACTGGATCCGAGCTG / ACGCGTTCCGT [L-DNA aptamer sensor (L-9-1t based)]” bind ([5]; fluorescence sensor, linear response ~125-1000 nM (~250-2000 nM in 10% serum), 37 C, folded or branched DNA, variant of L-9-1t …)?
A: binds

For some of these results: Negatives hold for the conditions tested. For some of these results: The exact form of at least one protein or probe is not confirmed.
